Test results: publication PMC3227594
These are yes or no findings as the source states them, for the method shown. In cells and extracts the contact can be indirect. Some entries that bind do so weakly or less than the wild type. Blank lines part the entries; values can stand above or below the molecule they belong to.

Sequences of proteins named here, by UniProt entry; tags and fusion partners are left off.
UniProt Q06945: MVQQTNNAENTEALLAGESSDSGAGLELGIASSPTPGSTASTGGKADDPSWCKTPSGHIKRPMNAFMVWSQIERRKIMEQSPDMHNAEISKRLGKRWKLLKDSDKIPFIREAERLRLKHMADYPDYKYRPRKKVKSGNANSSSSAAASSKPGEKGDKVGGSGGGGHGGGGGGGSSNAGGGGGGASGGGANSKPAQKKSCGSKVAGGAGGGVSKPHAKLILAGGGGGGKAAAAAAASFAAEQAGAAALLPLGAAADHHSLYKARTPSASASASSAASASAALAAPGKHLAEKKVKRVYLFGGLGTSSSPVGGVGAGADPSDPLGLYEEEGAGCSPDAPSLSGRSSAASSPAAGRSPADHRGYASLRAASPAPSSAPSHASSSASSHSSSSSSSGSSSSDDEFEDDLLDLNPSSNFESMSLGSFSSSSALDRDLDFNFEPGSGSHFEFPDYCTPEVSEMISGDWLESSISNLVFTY

Tests used:
[1] = target: T1, Junction plakoglobin (JUP) (human (endogenous in LNCaP, PC3M, primary human keratinocytes, MDA-MB-231)) (UniProt P14923); experiment: co-IP; anti-plakoglobin IP of endogenous plakoglobin from LNCaP whole cell lysate (transfected or untransfected); blot with anti-HA 16B12 or for endogenous SOX4
T1 sequence: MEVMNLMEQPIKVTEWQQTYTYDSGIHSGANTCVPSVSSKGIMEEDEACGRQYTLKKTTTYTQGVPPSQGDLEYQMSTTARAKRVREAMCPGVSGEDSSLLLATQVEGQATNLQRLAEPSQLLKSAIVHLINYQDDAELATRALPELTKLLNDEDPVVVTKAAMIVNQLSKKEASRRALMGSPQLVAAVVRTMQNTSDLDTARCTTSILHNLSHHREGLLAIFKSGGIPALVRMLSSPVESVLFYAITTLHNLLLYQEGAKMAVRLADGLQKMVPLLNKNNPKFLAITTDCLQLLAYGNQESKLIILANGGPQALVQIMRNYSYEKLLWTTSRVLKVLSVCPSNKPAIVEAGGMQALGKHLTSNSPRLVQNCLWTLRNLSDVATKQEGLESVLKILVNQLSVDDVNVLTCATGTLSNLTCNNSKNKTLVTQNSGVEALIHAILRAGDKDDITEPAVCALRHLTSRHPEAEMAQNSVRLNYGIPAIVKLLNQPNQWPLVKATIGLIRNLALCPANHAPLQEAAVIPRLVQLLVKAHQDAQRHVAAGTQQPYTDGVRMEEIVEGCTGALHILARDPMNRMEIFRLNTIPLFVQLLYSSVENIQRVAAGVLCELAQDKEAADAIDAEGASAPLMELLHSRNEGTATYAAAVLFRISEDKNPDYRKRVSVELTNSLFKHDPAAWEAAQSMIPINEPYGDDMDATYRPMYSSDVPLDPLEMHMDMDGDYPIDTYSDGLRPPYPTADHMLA

[2] = target: T1, Junction plakoglobin (JUP) (human (endogenous in LNCaP, PC3M, primary human keratinocytes, MDA-MB-231)); experiment: co-IP; anti-plakoglobin IP from whole cell lysates of primary human keratinocytes and MDA-MB-231, lysates treated with DNase I for 1 hr at room temperature before IP; blot for endogenous SOX4
[3] = target: HA-tagged SOX4 (stably expressed) (human) (UniProt Q06945); experiment: co-IP; anti-HA IP from separate cytosolic and nuclear fractions of LNCaP HASOX4 stable cells treated with vehicle, WNT3A, LMB or both; blot for plakoglobin
[4] = target: HA-tagged SOX4 (stably expressed) (human) (UniProt Q06945); experiment: co-IP; anti-HA IP from whole cell lysate of LNCaP HASOX4 stable cells treated with vehicle, WNT3A (100 ng/ml), LMB (20 μM) or both for 24 hrs; blot for plakoglobin
[5] = target: HA-tagged SOX4 (stably expressed) (human) (UniProt Q06945); experiment: co-IP; HASOX4 IP from whole cell lysates of PC3M and LNCaP cells stably expressing HA-SOX4, lysates treated with DNase I for 1 hr at room temperature before IP; blot for endogenous plakoglobin

binding [1]: binds
binding [2]: binds
Molecule: SOX4 (endogenous) (from UniProt Q06945 1-474)

binding [3]: binds
binding [4]: binds
binding [5]: binds
B1: Junction plakoglobin (JUP) (protein, UniProt P14923 1-745)
chain: T1 sequence
